# Measured values: PubChem BioAssay AID2685 (National Center for Advancing Translational Sciences (NCATS), 2010)
# This is one part of the list. These are further read-outs of the screen, such as a control signal, another cell line or another target. No call is given for them. The list favours compounds with an active or inconclusive main result. Words in brackets tell the shape of the fitted curve; partial curves, single points and poor fits give uncertain potencies.
# Test: qHTS Assay for Lipid Storage Modulators in Drosophila S3 Cells;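 on cell number change: cells counted by Cell Tracker Red CMTPX staining in the red channel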
# Details: BODIPY lipid droplet fluorescence, 18-24 h; for cell number change: measured here: cell count max response, cells fed with added oleic acid
# How it was run: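 Laser-scanning cytometry quantifies lipid droplet accumulation (500–530 nm total intensity; droplet/cell object ratio) in oleic acid-fed (400 uM added) Drosophila S3 cells treated with a concentration series. 20 uM Triacsin C defined 100% inhibition.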
# [1] = measured here: lipid fluorescence (Fed channel) AC50, cells fed with added oleic acid
# [2] = measured here: cell number channel AC50, cells fed with added oleic acid
Structure (SMILES),cell number change [%],AC50 [1],AC50 [2]
Cc1ccc(-c2cc(N)n(-c3ccc(F)cc3)n2)cc1,25.2,,
CC1(C)CC(NS(=O)(=O)c2ccc(S(=O)(=O)N3CCOCC3)cc2)CCO1 (stereo unspecified),0.612,"0.0517 µM [falling, full curve, poor fit]",
CN(C)C(=S)SCC(=O)NCc1ccc(F)cc1,16.1,,"2.31 µM [falling, partial curve]"
C(=N\N=C\c1cccnc1)/c1cccnc1,47.4,"10.3 µM [rising, single point]","2.91 µM [rising, full curve]"
Cc1c(C(=O)NCC2CCCO2)oc2ccccc12 (stereo unspecified),-40.5,"29.1 µM [falling, single point]","18.4 µM [falling, partial curve, poor fit]"
Cc1ccc(C(=O)N/C(=C\c2cccs2)C(=O)NC2CCCCC2)cc1,66.1,,"29.1 µM [rising, single point]"
Cc1nc(C)n(CC(O)COc2ccc3ccccc3c2)n1 (stereo unspecified),-3.48,"1.16 µM [rising, single point]",
CCCS(=O)(=O)N1CCCC(C(=O)N2CCN(c3ccccc3)CC2)C1 (stereo unspecified),-20.7,,
CC1(C)CC(N2CCN(Cc3ccccc3)CC2)=CC(=[N+]2CCCCC2)C1,-20.4,"13 µM [falling, partial curve]",
c1ccc(-c2ccc(OCCN3CCOCC3)cc2)cc1,21.3,"29.1 µM [rising, single point]",
O=S(=O)(Nc1nc2ccccc2nc1Nc1ccc2c(c1)OCCO2)c1cccs1,5.7,,
CCN1C(=O)C2C(C1=O)N1C(c3cccs3)C3C(=O)N(CC)C(=O)C3N1C2c1cccs1 (stereo unspecified),24.4,,
CC(C)n1nnc2c(=O)oc3ccccc3c21,126,"6.51 µM [rising, partial curve]","8.2 µM [rising, partial curve]"
O=C(Nc1ccc2c(c1)OCCO2)c1cnccn1,31.3,"29.1 µM [rising, single point]","16.4 µM [rising, single point]"
Cc1cccc(C(=O)Nc2nc(C)c(C(=O)Nc3ccc4c(c3)CCC4)s2)c1,-21.3,,
CC(C)CCN1CCN=C1N(C)C,-19.9,"1.3 µM [falling, full curve]",
Cc1onc(-c2ccccc2)c1-c1nnc(COC(=O)c2ccc(O)cc2)o1,-35.1,"1.84 µM [falling, partial curve, poor fit]","29.1 µM [falling, single point]"
CCC(=C(c1ccc(OC)cc1)c1ccc(OC)cc1)c1cn(CC(O)CN(CCO)CCO)c2ccccc12 (stereo unspecified),-45.1,,"29.1 µM [falling, single point]"

# In another format: entries from further up.
Structure (SMILES) | cell number change [%] | AC50 [1] | AC50 [2]
Cc1ccc(C(=O)N/C(=C\c2cccs2)C(=O)NC2CCCCC2)cc1 | 66.1 |  | 29.1 µM [rising, single point]
CC(C)CCN1CCN=C1N(C)C | -19.9 | 1.3 µM [falling, full curve] | 
